According to publication PMC11633487:
No constants are given. Whether binding was seen depends on the method and setting. In cells and extracts the contact can be indirect. Some results given as binding are weak or reduced against the parent protein; the word gives no strength.

By UniProt entry, the sequences of proteins in these tests, tags left out. Where a name states a change or a piece, a line headed by the entry shows the natural chain unless it says otherwise.
UniProt Q9UMS4: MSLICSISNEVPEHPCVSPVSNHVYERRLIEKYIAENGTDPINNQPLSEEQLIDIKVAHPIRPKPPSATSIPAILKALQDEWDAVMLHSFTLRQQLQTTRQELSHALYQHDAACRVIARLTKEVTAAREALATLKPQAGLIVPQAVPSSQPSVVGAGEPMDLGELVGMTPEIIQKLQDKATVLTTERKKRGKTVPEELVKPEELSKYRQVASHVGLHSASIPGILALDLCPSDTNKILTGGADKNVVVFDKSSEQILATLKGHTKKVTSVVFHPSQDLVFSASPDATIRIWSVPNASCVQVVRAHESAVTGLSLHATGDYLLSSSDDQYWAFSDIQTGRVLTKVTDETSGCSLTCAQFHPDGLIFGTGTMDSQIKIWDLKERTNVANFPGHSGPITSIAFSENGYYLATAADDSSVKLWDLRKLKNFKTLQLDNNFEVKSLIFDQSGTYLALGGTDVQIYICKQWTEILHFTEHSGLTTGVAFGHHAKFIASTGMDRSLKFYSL
UniProt P17844: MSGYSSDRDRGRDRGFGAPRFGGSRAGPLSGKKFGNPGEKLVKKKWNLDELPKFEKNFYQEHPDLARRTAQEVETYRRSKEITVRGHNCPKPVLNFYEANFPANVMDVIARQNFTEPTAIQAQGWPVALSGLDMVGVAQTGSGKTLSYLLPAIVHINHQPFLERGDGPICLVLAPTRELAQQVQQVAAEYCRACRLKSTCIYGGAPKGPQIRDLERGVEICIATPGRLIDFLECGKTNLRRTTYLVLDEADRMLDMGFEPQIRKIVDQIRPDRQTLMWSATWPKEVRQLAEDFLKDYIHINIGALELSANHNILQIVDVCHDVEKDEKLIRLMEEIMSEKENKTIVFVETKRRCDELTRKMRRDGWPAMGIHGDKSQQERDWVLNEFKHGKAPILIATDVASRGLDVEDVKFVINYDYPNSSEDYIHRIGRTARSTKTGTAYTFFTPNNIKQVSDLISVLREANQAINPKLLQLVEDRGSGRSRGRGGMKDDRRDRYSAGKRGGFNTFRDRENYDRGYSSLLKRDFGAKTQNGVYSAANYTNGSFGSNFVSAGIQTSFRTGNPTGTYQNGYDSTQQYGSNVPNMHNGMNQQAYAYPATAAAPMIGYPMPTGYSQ

Experiments:
[1] = target: Pre-mRNA processing factor 19 (PRP19), endogenous in HCC cells (not stated (endogenous in HCC cells; human Huh7, PLC/PRF/5 or mouse Hepa1-6)) (UniProt Q9UMS4); assay: co-IP; reciprocal co-IP of endogenous PRP19 and DDX5 in HCC cells; IP lysis buffer, antibody overnight at 4 °C, Protein A magnetic beads, five washes, western blot
[2] = target: PRP19-Myc (without domain mutation) (UniProt Q9UMS4); assay: co-IP; HEK293T cells transfected with PRP19-Myc plasmids (domain mutations) for 48 h; lysates precipitated with anti-DDX5 and with anti-Myc antibodies, western blot

Substance | binding [1] | binding [2]
DEAD-box helicase 5 (DDX5), endogenous in HCC cells (from UniProt P17844 1-614) | binds | 
DDX5 in HEK293T cells (from UniProt P17844 1-614) |  | binds
